In the supplement of paper PMC7661543:
Differences between knockout arms are mostly noise.

System: HCC-38
Test: relative cell number vs DMSO control (72 h) (% of DMSO); higher = less growth inhibition (more cells)
Experimental: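 QMAP-Seq: a pool of 5 breast cancer cell lines (ZR-75-1, SKBR3, HCC-38, MDA-MB-231, BT-20), each carrying 12 doxycycline-inducible Cas9 sgRNA perturbations (11 knockouts plus non-targeting sgNT), was treated with compounds for 72 h at four 10-fold doses (10 nM-10 uM or 1 nM-1 uM range). Barcodes were amplified and sequenced, and cell number was interpolated from 293T spike-in standard curves. The result is expressed as % of the median of DMSO wells. Two biological replicates.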

CC(=O)Nc1nc(C)c(-c2ccc(Cl)c(S(=O)(=O)NCCO)c2)s1 [PIK93]
Conditions	relative cell number
sgRNA knockout: sgATF3, 10 nM	125
sgRNA knockout: sgATF3, 100 nM	124
sgRNA knockout: sgATF3, 1000 nM	83.5
sgRNA knockout: sgATF3, 10000 nM	67.9
sgRNA knockout: sgATF4, 10 nM	120
sgRNA knockout: sgATF4, 100 nM	125
sgRNA knockout: sgATF4, 1000 nM	71.8
sgRNA knockout: sgATF4, 10000 nM	59.7
sgRNA knockout: sgATF6, 10 nM	127
sgRNA knockout: sgATF6, 100 nM	100
sgRNA knockout: sgATF6, 1000 nM	85.16
sgRNA knockout: sgATF6, 10000 nM	69.6
sgRNA knockout: sgATG7, 10 nM	125
sgRNA knockout: sgATG7, 100 nM	113
sgRNA knockout: sgATG7, 1000 nM	81.9
sgRNA knockout: sgATG7, 10000 nM	67.9
sgRNA knockout: sgERN1, 10 nM	118
sgRNA knockout: sgERN1, 100 nM	118.1
sgRNA knockout: sgERN1, 1000 nM	79.9
sgRNA knockout: sgERN1, 10000 nM	63.9
sgRNA knockout: sgHSF1, 10 nM	125
sgRNA knockout: sgHSF1, 100 nM	96.3
sgRNA knockout: sgHSF1, 1000 nM	99.7
sgRNA knockout: sgHSF1, 10000 nM	71.9
sgRNA knockout: sgHSF2, 10 nM	127
sgRNA knockout: sgHSF2, 100 nM	117
sgRNA knockout: sgHSF2, 1000 nM	86.4
sgRNA knockout: sgHSF2, 10000 nM	66.6
sgRNA knockout: sgKEAP1, 10 nM	112
sgRNA knockout: sgKEAP1, 100 nM	106
sgRNA knockout: sgKEAP1, 1000 nM	85.4
sgRNA knockout: sgKEAP1, 10000 nM	76.6
sgRNA knockout: sgNFE2L2, 10 nM	130
sgRNA knockout: sgNFE2L2, 100 nM	125
sgRNA knockout: sgNFE2L2, 1000 nM	69.4
sgRNA knockout: sgNFE2L2, 10000 nM	58
sgRNA knockout: sgSLC35F2, 10 nM	115
sgRNA knockout: sgSLC35F2, 100 nM	128
sgRNA knockout: sgSLC35F2, 1000 nM	81.1
sgRNA knockout: sgSLC35F2, 10000 nM	67.8
sgRNA knockout: sgXBP1, 10 nM	127
sgRNA knockout: sgXBP1, 100 nM	125
sgRNA knockout: sgXBP1, 1000 nM	78.8
sgRNA knockout: sgXBP1, 10000 nM	66.7

CCC(C)SSc1ncc[nH]1 (configuration not stated) [PX12]
Conditions	relative cell number
sgRNA knockout: sgATF3, 10 nM	103
sgRNA knockout: sgATF3, 100 nM	111
sgRNA knockout: sgATF3, 1000 nM	98.1
sgRNA knockout: sgATF3, 10000 nM	87.2
sgRNA knockout: sgATF4, 10 nM	106.3
sgRNA knockout: sgATF4, 100 nM	116
sgRNA knockout: sgATF4, 1000 nM	89.1
sgRNA knockout: sgATF4, 10000 nM	81.1
sgRNA knockout: sgATF6, 10 nM	108
sgRNA knockout: sgATF6, 100 nM	109
sgRNA knockout: sgATF6, 1000 nM	89
sgRNA knockout: sgATF6, 10000 nM	80.7
sgRNA knockout: sgATG7, 10 nM	103
sgRNA knockout: sgATG7, 100 nM	107
sgRNA knockout: sgATG7, 1000 nM	88
sgRNA knockout: sgATG7, 10000 nM	82
sgRNA knockout: sgERN1, 10 nM	98.8
sgRNA knockout: sgERN1, 100 nM	107
sgRNA knockout: sgERN1, 1000 nM	99
sgRNA knockout: sgERN1, 10000 nM	81.8
sgRNA knockout: sgHSF1, 10 nM	107
sgRNA knockout: sgHSF1, 100 nM	123
sgRNA knockout: sgHSF1, 1000 nM	86.1
sgRNA knockout: sgHSF1, 10000 nM	88.4
sgRNA knockout: sgHSF2, 10 nM	104
sgRNA knockout: sgHSF2, 100 nM	117
sgRNA knockout: sgHSF2, 1000 nM	96.4
sgRNA knockout: sgHSF2, 10000 nM	74.4
sgRNA knockout: sgKEAP1, 10 nM	116
sgRNA knockout: sgKEAP1, 100 nM	129
sgRNA knockout: sgKEAP1, 1000 nM	86.4
sgRNA knockout: sgKEAP1, 10000 nM	87.3
sgRNA knockout: sgNFE2L2, 10 nM	102
sgRNA knockout: sgNFE2L2, 100 nM	106
sgRNA knockout: sgNFE2L2, 1000 nM	85.5
sgRNA knockout: sgNFE2L2, 10000 nM	82.5
sgRNA knockout: sgSLC35F2, 10 nM	107
sgRNA knockout: sgSLC35F2, 100 nM	106
sgRNA knockout: sgSLC35F2, 1000 nM	87.7
sgRNA knockout: sgSLC35F2, 10000 nM	77.1
sgRNA knockout: sgXBP1, 10 nM	111
sgRNA knockout: sgXBP1, 100 nM	108
sgRNA knockout: sgXBP1, 1000 nM	88.2
sgRNA knockout: sgXBP1, 10000 nM	84

Cc1ccc(Nc2nccc(N(C)c3ccc4c(C)n(C)nc4c3)n2)cc1S(N)(=O)=O [Pazopanib]
Conditions	relative cell number
sgRNA knockout: sgATF3, 10 nM	99.9
sgRNA knockout: sgATF3, 100 nM	90.5
sgRNA knockout: sgATF3, 1000 nM	88.1
sgRNA knockout: sgATF3, 10000 nM	60.3
sgRNA knockout: sgATF4, 10 nM	97.8
sgRNA knockout: sgATF4, 100 nM	95.9
sgRNA knockout: sgATF4, 1000 nM	97
sgRNA knockout: sgATF4, 10000 nM	61.5
sgRNA knockout: sgATF6, 10 nM	84.9
sgRNA knockout: sgATF6, 100 nM	91.6
sgRNA knockout: sgATF6, 1000 nM	97.1
sgRNA knockout: sgATF6, 10000 nM	57.5
sgRNA knockout: sgATG7, 10 nM	90.5
sgRNA knockout: sgATG7, 100 nM	87.1
sgRNA knockout: sgATG7, 1000 nM	86.6
sgRNA knockout: sgATG7, 10000 nM	56.1
sgRNA knockout: sgERN1, 10 nM	97.9
sgRNA knockout: sgERN1, 100 nM	89.8
sgRNA knockout: sgERN1, 1000 nM	92.361
sgRNA knockout: sgERN1, 10000 nM	61.62
sgRNA knockout: sgHSF1, 10 nM	92.7
sgRNA knockout: sgHSF1, 100 nM	78.4
sgRNA knockout: sgHSF1, 1000 nM	90.1
sgRNA knockout: sgHSF1, 10000 nM	53.3
sgRNA knockout: sgHSF2, 10 nM	96.6
sgRNA knockout: sgHSF2, 100 nM	88.4
sgRNA knockout: sgHSF2, 1000 nM	92.9
sgRNA knockout: sgHSF2, 10000 nM	61.4
sgRNA knockout: sgKEAP1, 10 nM	90.3
sgRNA knockout: sgKEAP1, 100 nM	94.3
sgRNA knockout: sgKEAP1, 1000 nM	75.9
sgRNA knockout: sgKEAP1, 10000 nM	52.88
sgRNA knockout: sgNFE2L2, 10 nM	87.8
sgRNA knockout: sgNFE2L2, 100 nM	98
sgRNA knockout: sgNFE2L2, 1000 nM	102
sgRNA knockout: sgNFE2L2, 10000 nM	60.5
sgRNA knockout: sgSLC35F2, 10 nM	94.4
sgRNA knockout: sgSLC35F2, 100 nM	86.5
sgRNA knockout: sgSLC35F2, 1000 nM	91.6
sgRNA knockout: sgSLC35F2, 10000 nM	62.7
sgRNA knockout: sgXBP1, 10 nM	87.6
sgRNA knockout: sgXBP1, 100 nM	97.7
sgRNA knockout: sgXBP1, 1000 nM	92.8
sgRNA knockout: sgXBP1, 10000 nM	61
